PubChem BioAssay AID190 (DTP/NCI, 2004)
The list does not hold the whole screen: it gathers tests that were run many times, whatever their T/C, doses with no T/C, and many T/C values between a quarter and a half above the control. Other doses and runs of a compound stand elsewhere. T/C: endpoint of the treated group in % of that of the vehicle group. Some doses have a count of surviving animals in place of a T/C: the source holds a T/C of zero for them, seemingly a mark for toxic or unscored doses. Some doses without a T/C left all or most animals alive at the check, yet need not have been tolerated: survival well below the control is almost never listed, so the zero probably covers shortened survival too. Counts of survivors are from the toxicity check (mostly the fifth day) where no day follows; animals may have died later. Schedule codes are those of the source, read here as Q, the interval in days (D) or hours (H), X, the number of doses. For survival time, the PubChem record calls one and a half times the control and up active, and a quarter to a half above the control has no call in these data; cut-offs in other NCI protocols can differ. Some T/C values are followed by the survivors on the day toxicity was checked, most often the fifth; where none is given, no animal had died by that day. Some entries hold several experiments; the values are given in rising order. Counts like (3×) count equal records among those shown.

Tested on: AKR/Lw mice, AKR lymphoma ip, median survival T/C
Assay: NCI In Vivo Anticancer Drug Screen. Data for tumor model Lymphoma AKR (Transplanted) (intraperitoneal) in AKR/Lw mice
Settings: T/C endpoint: median survival time, higher T/C = longer survival
Experimental: The antitumor activity of compounds was measured in mice bearing transplantable tumors. Survival or tumor size were measured and the results are expressed as the measurement made in the treated group (T) divided by the measurement made in the vehicle treated control group (C). The tumor model used in this assay is Lymphoma AKR (Transplanted) (intraperitoneal) in AKR/Lw mice

[1] = dose: 25.0 mg/kg/injection, schedule: Q01DX009 (ip), vehicle: saline
[2] = dose: 50.0 mg/kg/injection, schedule: Q01DX009 (ip), vehicle: saline
[3] = dose: 200.0 mg/kg/injection, schedule: Q01DX009 (ip), vehicle: saline
[4] = dose: 400.0 mg/kg/injection, schedule: Q01DX009 (ip), vehicle: saline
[5] = dose: 600.0 mg/kg/injection, schedule: Q04DX003 (ip), vehicle: saline
[6] = dose: 50.0 mg/kg/injection, schedule: Q01DX009 (ip), vehicle: Klucel (hydroxypropylcellulose) (HPC)
[7] = dose: 100.0 mg/kg/injection, schedule: Q01DX009 (ip), vehicle: saline
[8] = dose: 150.0 mg/kg/injection, schedule: Q04DX003 (ip), vehicle: Klucel (hydroxypropylcellulose) (HPC)
[9] = dose: 400.0 mg/kg/injection, schedule: Q01DX009 (ip), vehicle: Klucel (hydroxypropylcellulose) (HPC)
[10] = dose: 400.0 mg/kg/injection, schedule: Q04DX003 (ip), vehicle: Klucel (hydroxypropylcellulose) (HPC)
[11] = dose: 500.0 mg/kg/injection, schedule: Q04DX003 (ip), vehicle: Klucel (hydroxypropylcellulose) (HPC)

## N=c1ccn2c(n1)OC1C(O)C(CO)OC12 (stereo unspecified)
[1]
  T/C: 102 [9 of 10 alive], 110, 134, 137 [8 of 10 alive], 138 [9 of 10 alive], 141 % of control [9 of 10 alive]
  survivor count: 10 of 10
[2]
  T/C: 113, 115, 118, 122, 128, 128 [9 of 10 alive], 131, 150 % of control
dose: 75.0 mg/kg/injection, schedule: Q01DX009 (ip), vehicle: saline
  T/C: 131 % of control
dose: 100.0 mg/kg/injection, schedule: Q01DX009 (ip), vehicle: saline, evaluated on day 45
  T/C: 128 % of control
dose: 100.0 mg/kg/injection, schedule: Q01DX009 (ip), vehicle: saline, evaluated on day 60
  T/C: 109 [8 of 10 alive], 126, 147, 163 (2×), 166 % of control
dose: 100.0 mg/kg/injection, schedule: Q04DX003 (ip), vehicle: saline
  T/C: 87, 100, 105 [9 of 10 alive], 114 % of control
dose: 150.0 mg/kg/injection, schedule: Q01DX009 (ip), vehicle: saline
  T/C: 144 % of control
dose: 200.0 mg/kg/injection, schedule: Q01DX009 (ip), vehicle: saline, evaluated on day 45
  T/C: 143 % of control
dose: 200.0 mg/kg/injection, schedule: Q01DX009 (ip), vehicle: saline, evaluated on day 60
  T/C: 103 [9 of 10 alive], 108 [8 of 10 alive], 109 [8 of 10 alive], 170 % of control
[3]
  survivor count: 10 of 10
dose: 200.0 mg/kg/injection, schedule: Q04DX003 (ip), vehicle: saline
  T/C: 97, 100 (2×), 119, 131 % of control
dose: 300.0 mg/kg/injection, schedule: Q01DX009 (ip), vehicle: saline
  survivor count: 10 of 10
dose: 300.0 mg/kg/injection, schedule: Q04DX003 (ip), vehicle: saline
  T/C: 130 % of control
dose: 400.0 mg/kg/injection, schedule: Q01DX001 (ip), vehicle: saline, evaluated on day 45
  T/C: 117 % of control
dose: 400.0 mg/kg/injection, schedule: Q01DX001 (ip), vehicle: saline, evaluated on day 60
  T/C: 93, 102, 112, 118, 128, 161 % of control [9 of 10 alive]
[4]
  T/C: 86 [9 of 10 alive], 109 [9 of 10 alive], 122, 184 % of control
  survivor count: 10 of 10
dose: 400.0 mg/kg/injection, schedule: Q04DX003 (ip), vehicle: saline
  T/C: 113, 116, 118, 155, 156, 197 % of control
dose: 500.0 mg/kg/injection, schedule: Q01DX001 (ip), vehicle: saline
  T/C: 104, 108, 118, 126, 132, 138 % of control
dose: 500.0 mg/kg/injection, schedule: Q04DX003 (ip), vehicle: saline
  T/C: 125 and 143 % of control [9 of 10 alive]
dose: 600.0 mg/kg/injection, schedule: Q01DX001 (ip), vehicle: saline
  T/C: 100, 105 [9 of 10 alive], 114, 123, 125, 133 % of control
[5]
  T/C: 125 % of control
  survivor count: 10 of 10

## O=[N+]([O-])c1ccc(OCc2ccc(S(=O)(=O)F)c(Cl)c2)c(Cl)c1
dose: 25.0 mg/kg/injection, schedule: Q01DX009 (ip), vehicle: Klucel (hydroxypropylcellulose) (HPC)
  survivor count: 10 of 10
[6]
  survivor count: 10 of 10

## CN(C)/N=N/c1nc[nH]c1C(N)=O
dose: 12.5 mg/kg/injection, schedule: Q01DX009 (ip), vehicle: saline
  survivor count: 10 of 10
[6]
  T/C: 126 % of control [9 of 10 alive]
[2]
  T/C: 118 [9 of 10 alive], 131, 140 % of control [9 of 10 alive]
  survivor count: 10 of 10
dose: 65.0 mg/kg/injection, schedule: Q01DX005 (ip), vehicle: Klucel (hydroxypropylcellulose) (HPC)
  T/C: 144 % of control
dose: 100.0 mg/kg/injection, schedule: Q01DX001 (ip), vehicle: saline
  T/C: 125 % of control
dose: 100.0 mg/kg/injection, schedule: Q01DX009 (ip), vehicle: Klucel (hydroxypropylcellulose) (HPC)
  T/C: 141 % of control [9 of 10 alive]
[7]
  T/C: 112, 122, 133, 163 % of control
  survivor count: 8 of 10
[8]
  T/C: 125 and 126 % of control
  survivor count: 10 of 10
dose: 150.0 mg/kg/injection, schedule: Q04DX003 (ip), vehicle: saline, evaluated on day 45
  T/C: 90 [9 of 10 alive], 113 (2×), 121 % of control
dose: 150.0 mg/kg/injection, schedule: Q04DX003 (ip), vehicle: saline, evaluated on day 60
  T/C: 125 % of control
dose: 200.0 mg/kg/injection, schedule: Q01DX001 (ip), vehicle: Klucel (hydroxypropylcellulose) (HPC)
  T/C: 127 % of control
dose: 200.0 mg/kg/injection, schedule: Q01DX009 (ip), vehicle: Klucel (hydroxypropylcellulose) (HPC)
  T/C: 131 % of control
[3]
  T/C: 89, 105, 123, 140 % of control
dose: 300.0 mg/kg/injection, schedule: Q01DX005 (ip), vehicle: Klucel (hydroxypropylcellulose) (HPC)
  survivor count: 10 of 10
dose: 300.0 mg/kg/injection, schedule: Q04DX003 (ip), vehicle: Klucel (hydroxypropylcellulose) (HPC)
  T/C: 90 [9 of 10 alive], 102 [9 of 10 alive], 105, 130 [9 of 10 alive], 141 % of control [9 of 10 alive]
dose: 300.0 mg/kg/injection, schedule: Q04DX003 (ip), vehicle: saline, evaluated on day 45
  T/C: 113, 115, 135, 142 % of control
dose: 300.0 mg/kg/injection, schedule: Q04DX003 (ip), vehicle: saline, evaluated on day 60
  T/C: 140 % of control
dose: 400.0 mg/kg/injection, schedule: Q01DX001 (ip), vehicle: Klucel (hydroxypropylcellulose) (HPC)
  T/C: 94, 105, 113, 117 % of control
dose: 400.0 mg/kg/injection, schedule: Q01DX005 (ip), vehicle: Klucel (hydroxypropylcellulose) (HPC)
  survivor count: 10 of 10
dose: 400.0 mg/kg/injection, schedule: Q01DX005 (ip), vehicle: water
  survivor count: 10 of 10
[9]
  T/C: 128 % of control
  survivor count: 9 of 10
[4]
  T/C: 146 % of control [9 of 10 alive]
[10]
  T/C: 87, 108, 126, 133 % of control
  survivor count: 10 of 10
dose: 500.0 mg/kg/injection, schedule: Q01DX001 (ip), vehicle: Klucel (hydroxypropylcellulose) (HPC)
  T/C: 129 % of control
[11]
  T/C: 126 % of control [9 of 10 alive]
  survivor count: 10 of 10
[5]
  T/C: 97, 109, 110, 113 % of control
  survivor count: 9 of 10
dose: 800.0 mg/kg/injection, schedule: Q01DX005 (ip), vehicle: water
  survivor count: 5 of 9

## Cc1ccc(S(=O)(=O)Nc2ccccc2-c2nc3c(Cl)ccc(Cl)c3c(=O)o2)cc1
[10]
  survivor count: 10 of 10

## NC(=S)N/N=C/c1ccccn1
dose: 1.0 mg/kg/injection, schedule: Q01DX009 (ip), vehicle: saline with Tween-80
  T/C: 128 % of control
dose: 1.75 mg/kg/injection, schedule: Q01DX009 (ip), vehicle: saline with Tween-80
  T/C: 125 % of control
dose: 2.5 mg/kg/injection, schedule: Q01DX009 (ip), vehicle: saline with Tween-80
  T/C: 137 and 141 % of control
dose: 3.5 mg/kg/injection, schedule: Q01DX009 (ip), vehicle: saline with Tween-80
  survivor count: 7 of 9
dose: 4.0 mg/kg/injection, schedule: Q03HX032 (ip), vehicle: saline with Tween-80
  survivor count: 10 of 10
dose: 8.0 mg/kg/injection, schedule: Q03HX032 (ip), vehicle: saline with Tween-80
  survivor count: 1 of 10
dose: 8.0 mg/kg/injection, schedule: Q04DX003 (ip), vehicle: saline with Tween-80
  T/C: 126 % of control
dose: 10.0 mg/kg/injection, schedule: Q01DX009 (ip), vehicle: saline with Tween-80
  survivor count: 8 of 10
dose: 16.0 mg/kg/injection, schedule: Q04DX003 (ip), vehicle: saline with Tween-80
  survivor count: 5 of 10
dose: 32.0 mg/kg/injection, schedule: Q04DX003 (ip), vehicle: saline with Tween-80
  survivor count: 2 of 10
